Columns and labels:
[1] = test system: SK-MEL-28; assay: Uptake of gallium corroles (ImageXpress confocal); assay type: cell-based, human; settings: 30 μM; for enhancement of fluorescence in melanoma cells compared with the other three cell lines: after 24 h
[2] = test system: DU-145; assay: Uptake of gallium corroles (ImageXpress confocal); assay type: cell-based, human; settings: prostate cancer cells (DU-145), 30 μM, within 15 min, 37° C., dark

Row | SMILES | enhancement of fluorescence in melanoma cells compared with the other three cell lines ([1]; median RFU) | cells with observable corrole fluorescence [2] [%] | fluorescence in melanoma cells compared with prostate, breast, and ovarian cancer cells ([1]; after 3 h of incubation, median RFU) | cells with observable corrole fluorescence ([1]; melanoma cells (SK-MEL-28), within 15 min, 37° C., dark) [%]
1 | Fc1c(F)c(F)c(C2=C3C=CC4=[N+]3[Ga-]35[n]6c2ccc6C(c2c(F)c(F)c(F)c(F)c2F)=c2ccc([n]23)=C(c2c(F)c(F)c(F)c(F)c2F)c2ccc4[n]25)c(F)c1F (stereo not drawn) [Complex 1, gallium(III) tris(pentafluorophenyl)corrole] | twofold | – | – | –
2 | O=S(=O)(O)C1=CC2=C(c3c(F)c(F)c(F)c(F)c3F)c3ccc4[n]3[Ga-]35[n]6c(cc(S(=O)(=O)O)c6C(c6c(F)c(F)c(F)c(F)c6F)=c6ccc([n]63)=C4c3c(F)c(F)c(F)c(F)c3F)C1=[N+]25 (stereo not drawn) [Complex 2] | twofold | – | – | –
3 | O=C(O)CCCCCNc1c(F)c(F)c(C2=C3C=CC4=[N+]3[Ga-]35[n]6c2ccc6C(c2c(F)c(F)c(F)c(F)c2F)=c2ccc([n]23)=C(c2c(F)c(F)c(F)c(F)c2F)c2ccc4[n]25)c(F)c1F (stereo not drawn) [Complex 3] | twofold | – | – | –
4 | O=C(O)C1=CC2=[N+]3C1=C(c1c(F)c(F)c(F)c(F)c1F)c1ccc4[n]1[Ga-]31[n]3c(ccc32)C(c2c(F)c(F)c(F)c(F)c2F)=c2ccc([n]21)=C4c1c(F)c(F)c(F)c(F)c1F (stereo not drawn) [Complex 4] | – | > 99 | twofold to threefold higher | > 99

Reference: patent US10035806B2, “Derivatized corroles and metallocorroles and their use as imaging and therapeutic agents” (CALIFORNIA INSTITUTE OF TECHNOLOGY, priority 2015, dated 2018)
